From publication PMC10931257 come the findings set out here.

Protein sequences, listed by entry. Tags and fused reporters are not part of them. Lines headed by an entry give the natural chain unless they say otherwise; changes in a name come on top.
UniProt Q7YS82: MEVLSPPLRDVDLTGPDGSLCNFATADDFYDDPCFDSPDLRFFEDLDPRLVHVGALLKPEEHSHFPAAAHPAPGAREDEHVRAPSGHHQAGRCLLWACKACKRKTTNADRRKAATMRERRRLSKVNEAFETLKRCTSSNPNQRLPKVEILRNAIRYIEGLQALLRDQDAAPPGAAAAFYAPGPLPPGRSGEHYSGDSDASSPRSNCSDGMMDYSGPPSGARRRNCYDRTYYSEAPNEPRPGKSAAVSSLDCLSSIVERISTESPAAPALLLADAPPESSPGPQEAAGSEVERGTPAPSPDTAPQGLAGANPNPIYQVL
UniProt P27925: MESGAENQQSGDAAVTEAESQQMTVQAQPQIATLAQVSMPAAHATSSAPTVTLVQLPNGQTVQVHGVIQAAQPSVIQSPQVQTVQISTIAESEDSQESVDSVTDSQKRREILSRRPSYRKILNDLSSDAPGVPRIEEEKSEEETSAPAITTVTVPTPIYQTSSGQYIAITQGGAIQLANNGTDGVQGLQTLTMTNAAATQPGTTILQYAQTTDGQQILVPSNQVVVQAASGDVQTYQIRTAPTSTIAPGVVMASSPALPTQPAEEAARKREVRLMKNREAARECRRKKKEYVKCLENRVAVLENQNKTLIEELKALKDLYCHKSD

Data set [1] addresses MYOD1 (myogenic differentiation 1) (UniProt Q7YS82). Nature of the data set: competition with a labelled probe. The following applies: mutant competitor against labeled N1, complex minimally affected; EMSA: 10 ug nuclear extract, 5x binding buffer (composition and pH not given), poly(dI-dC), 20 uL, 15 min on ice, then 200 fmol biotin probe 20 min at room temperature; protein in an extract. For orientation: A gel shift assay detects complexes by their altered migration in electrophoresis.

For data set [2] the target is unchanged. Briefly: EMSA supershift. The following applies: anti-MYOD1, poly(dI-dC), unlabeled probe abolishes complex, EMSA: 10 ug nuclear extract, 5x binding buffer (composition and pH not given), 20 uL, 15 min on ice, then 200 fmol biotin probe 20 min at room temperature, protein in an extract, label: 5' biotin (unlabeled as competitor).
Data set [3] deals with CREB1 (cAMP response element binding protein 1) (UniProt P27925). Briefly: EMSA supershift. The following applies: anti-CREB1, poly(dI-dC), unlabeled probe abolishes complex, EMSA: 10 ug nuclear extract, 5x binding buffer (composition and pH not given), 20 uL, 15 min on ice, then 200 fmol biotin probe 20 min at room temperature, protein in an extract, label: 5' biotin (unlabeled as competitor).

Data set [4] has the same target. Nature of the data set: competition with a labelled probe. Particulars: mutant competitor against labeled N3, complex minimally affected; EMSA: 10 ug nuclear extract, 5x binding buffer (composition and pH not given), poly(dI-dC), 20 uL, 15 min on ice, then 200 fmol biotin probe 20 min at room temperature; protein in an extract.

The exact form of at least one protein or probe is not confirmed. Results from cells or extracts need not show a direct contact. For some of these results: Negatives hold for the conditions tested.

For the sequence “CCAGCCGCAAGACCCGATTAGGCCTAGGCGGTGGTCGTCGGCTCCAATAGTCGAATCTC (double strand) [mMYOD1 mutant probe (NCAPG promoter)]”, the binding result in data set [1] is “no binding”. As to “AAGACCCGATTAGGCCTAGGCGGTGGTCGTCGGCTCCAATAGTCGAATC / GATTCGACTATTGGAGCCGAGCGGTGGTCGCTAGGCCTAATCGGGTCTT [MYOD1 probe (NCAPG promoter)]”, the binding result in data set [2] is “binds”.

Take “ATGTTGAAGGCGGTGGATTCAAGAGAAGGTCACTCGCCGCTCTACGCACTCGC / GCGAGTGCGTAGAGCGGCGAGAGAGAAGGTCATGAATCCACCGCCTTCAACAT [CREB1 probe (NCAPG promoter)]”: the binding result in data set [3] is reported as “binds”. Take “CGATGTTGAAGGCGGTGGATTCATGAGAAGGTCGACTCGCCGCTCTACGCACTCGCGGT (double strand) [mCREB1 mutant probe (NCAPG promoter)]”: in data set [4], the binding result was “no binding”.
